The chains behind the UniProt entries cited, without tags or fusion partners. Where a name states a change or a piece, a line headed by the entry shows the natural chain unless it says otherwise.
UniProt Q9UNA4: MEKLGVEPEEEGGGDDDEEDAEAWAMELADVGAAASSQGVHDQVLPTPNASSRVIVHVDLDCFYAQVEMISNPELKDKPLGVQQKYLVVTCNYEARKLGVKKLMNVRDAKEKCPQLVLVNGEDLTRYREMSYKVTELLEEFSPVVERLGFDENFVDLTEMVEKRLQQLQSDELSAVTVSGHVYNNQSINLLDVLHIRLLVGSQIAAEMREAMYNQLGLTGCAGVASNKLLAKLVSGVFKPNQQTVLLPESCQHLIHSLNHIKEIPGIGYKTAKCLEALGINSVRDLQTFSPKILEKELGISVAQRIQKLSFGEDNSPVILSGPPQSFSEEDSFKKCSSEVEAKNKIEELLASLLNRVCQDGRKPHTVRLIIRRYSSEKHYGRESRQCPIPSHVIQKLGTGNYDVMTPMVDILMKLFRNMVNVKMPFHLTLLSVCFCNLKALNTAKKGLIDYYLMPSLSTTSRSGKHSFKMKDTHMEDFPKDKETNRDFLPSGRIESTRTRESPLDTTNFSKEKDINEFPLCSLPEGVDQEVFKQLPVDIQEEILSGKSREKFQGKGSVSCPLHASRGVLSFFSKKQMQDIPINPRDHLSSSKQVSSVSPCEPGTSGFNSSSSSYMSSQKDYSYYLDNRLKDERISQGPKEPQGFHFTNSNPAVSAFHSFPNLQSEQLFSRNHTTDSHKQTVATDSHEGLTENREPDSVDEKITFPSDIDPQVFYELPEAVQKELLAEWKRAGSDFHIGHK

About 4,000 (1%) of roughly 390,000 compounds were called active. The inconclusive results got no clear call from the source; some entries with a clear call stand among them for comparison. The call rests on the fitted dose curve; in most records, active means well fitted inhibition curve with a large enough effect; inconclusive means small, poorly fitted or top-dose-only effect, or another doubt; inactive means no such curve, though single readings can be large or run the other way. Where the call is inconclusive, the potency comes from a doubtful curve fit.
These compounds were tested against DNA polymerase iota (Homo sapiens) (UniProt Q9UNA4) (assay: qHTS for Inhibitors of Polymerase Iota). Conditions: Pol iota fluorescent replication assay, 10 min; series mostly up to 115 µM.
Method in brief: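 Pol iota at 10 nM preincubated 15 min with compounds at room temperature; reaction started with fluorescent substrate, 50 nM final. Fluorescence read kinetically at 0 and 10 min; buffer-only wells as negative control.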
`COC(=O)CCC(=O)OC1(C)C(=O)C2=CN(C3CC3)C(c3ccc(OC)cc3)=CC2=C(Br)C1=O` (configuration not stated) was tested, and the Potency was inconclusive: 20 µM [inhibitor, partial curve, poor fit]. With `CC(=O)c1ccc(NC(=O)CSc2nnc(-c3ccncc3)n2-c2ccccc2)cc1` the Potency was inconclusive: 89.1 µM [inhibitor, single point]. With `CC(=O)NC12CC3CC(C1)CC(C(=O)Nc1ccc(C)c(S(=O)(=O)N4CCCCCC4)c1)(C3)C2` the Potency was “inactive”. In the case of `O=C1Nc2c(Cl)cc(Cl)cc2C1=O`, the Potency is reported as inconclusive: 22.4 µM [inhibitor, full curve, poor fit]. `O=C(NCc1ccc(Cl)cc1)C(=O)NCC(c1ccc2c(c1)OCO2)N1CCOCC1` (configuration not stated) was tested, and the Potency was inconclusive: 89.1 µM [inhibitor, single point]. In the case of `C/C(=N\NC(=O)c1ccn(C)n1)c1ccc(NC(=O)c2cccc(F)c2)cc1`, the Potency is reported as “inactive”. In the case of `CCCCNC(=O)[C@@H]1CC=C[C@@H]2CCN(Cc3ccc(OC)c(OC)c3)C(=O)[C@@H]21`, the Potency is reported as “inactive”. For `Nn1cc(-c2ccccc2)nc1SCC(=O)N1CCN(S(=O)(=O)c2ccc3ccccc3c2)CC1`, the Potency was inconclusive: 10 µM [inhibitor, partial curve, poor fit]. For `O=C(CCCCCN1C(=O)c2ccccc2C1=O)Nc1ccc2c(c1)OCCO2`, the Potency was inconclusive: 3.16 µM [inhibitor, single point]. In the case of `COc1ccc(C(C[N+](=O)[O-])C2(c3ccc(OC)c(OC)c3)C(=O)c3ccccc3C2=O)cc1` (configuration not stated), the Potency is reported as inconclusive: 20 µM [inhibitor, full curve, poor fit]. With `CN1CCN(C2=C(Cl)C(=O)c3ccccc3C2=O)CC1` the Potency was active: 6.31 µM. `CCCCc1nn2c(=O)cc(COC(=O)c3cccc(NC(=O)c4cccs4)c3)nc2s1` was tested, and the Potency was inconclusive: 56.2 µM [inhibitor, partial curve, poor fit]. With `COc1ccc(S(=O)(=O)N2CCN(Cc3cc(=O)n4ccccc4n3)CC2)cc1` the Potency was inconclusive: 70.8 µM [inhibitor, partial curve]. With `C/C=C\C=C/C(=O)Nc1cccc(C2=NOC3(C2)C[C@H](C(N)=O)N(C(=O)CC)C3)c1` (some centres not stated) the Potency was inconclusive: 39.8 µM [inhibitor, partial curve]. In the case of `CCOc1cc(/C=C2\C(=N)N3N=C(N4CCCCC4)SC3=NC2=O)ccc1OC(=O)c1ccco1`, the Potency is reported as inconclusive: 14.1 µM [inhibitor, partial curve, poor fit]. `CC(=O)Nc1cc[n+](C(C)C(=O)c2ccccc2)cc1` (configuration not stated) was tested, and the Potency was inconclusive: 89.1 µM [inhibitor, partial curve, poor fit]. For `Cc1cc(NC(=O)COC(=O)c2oc3c(Cl)cccc3c2C)no1`, the Potency was inconclusive: 89.1 µM [inhibitor, single point]. With `COc1ccc(Br)cc1[C@H]1[C@H]2C=CC[C@@H](C)[C@@H]2C(=O)N1Cc1ccccc1` the Potency was inconclusive: 79.4 µM [inhibitor, partial curve]. For `CCOc1cc(NC(=O)CCl)c(OCC)cc1NC(C)=O`, the Potency was inconclusive: 89.1 µM [inhibitor, single point]. In the case of `O=C(OCC1OC(n2cnc3c(N(C(=O)c4ccccc4)C(=O)c4ccccc4)ncnc32)C(O)C1F)c1ccccc1` (configuration not stated), the Potency is reported as inconclusive: 14.1 µM [inhibitor, full curve, poor fit]. With `O=S(=O)(N/N=C1\CC(c2ccccc2)Oc2ccccc21)c1ccccc1` (configuration not stated) the Potency was inconclusive: 8.91 µM [inhibitor, partial curve, poor fit]. With `O=C(CC1Oc2ccc(Cl)cc2NC1=O)NCc1ccccc1` (configuration not stated) the Potency was inconclusive: 56.2 µM [inhibitor, partial curve, poor fit]. In the case of `C/C(=N\NC(=O)COc1ccc(C)cc1C(C)C)c1ccc(-n2ccnc2)cc1`, the Potency is reported as “inactive”. With `N/C(=N\OC(=O)c1ccc(Br)cc1)c1ccccc1` the Potency was inconclusive: 89.1 µM [inhibitor, single point]. For `Cc1ccc(Cl)cc1N(C)C(=O)c1cnc(N2CCOCC2)c2ccccc12`, the Potency was inconclusive: 3.98 µM [inhibitor, partial curve, poor fit]. With `COc1ccc(-c2nn(-c3ccccc3)cc2/C=C2/SC(=S)N(CCCC(=O)O)C2=O)c(C)c1` the Potency was inconclusive: 8.91 µM [inhibitor, full curve, poor fit]. In the case of `COC(=O)c1ccc(Cn2cnc3c(cnn3-c3ccc(F)cc3)c2=O)o1`, the Potency is reported as inconclusive: 4.47 µM [inhibitor, partial curve, poor fit]. In the case of `O=C(Nc1ccccc1-c1ccccc1)c1ccc(Cl)c([N+](=O)[O-])c1`, the Potency is reported as inconclusive: 89.1 µM [inhibitor, partial curve]. `O=C(NCCc1ccccc1F)/C(=C/c1cccnc1)NC(=O)c1ccccc1` was tested, and the Potency was inconclusive: 70.8 µM [inhibitor, partial curve, poor fit]. For `COc1ccccc1N1CCN(S(=O)(=O)c2cc3[nH]c(=O)c(=O)[nH]c3cc2C)CC1`, the Potency was inconclusive: 14.1 µM [inhibitor, partial curve, poor fit]. In the case of `CN(C(=O)CSc1ncnc2sccc12)C1CCS(=O)(=O)C1` (configuration not stated), the Potency is reported as inconclusive: 89.1 µM [inhibitor, single point]. In the case of `Cc1ccc(NC2c3ncccc3C(=O)N2Cc2ccc(F)cc2)cc1` (configuration not stated), the Potency is reported as inconclusive: 2.82 µM [inhibitor, full curve, poor fit]. With `Cc1noc(C)c1Cc1c(Cl)cccc1Cl` the Potency was “inactive”. For `COc1cccc(C(=O)NC2C(=O)N3C(C(=O)O)=C(COC(C)=O)CSC23)c1` (configuration not stated), the Potency was inconclusive: 25.1 µM [inhibitor, single point]. `O=C(COCc1cc(-c2ccc3c(c2)OCO3)on1)Nc1cccnc1Cl` was tested, and the Potency was inconclusive: 5.01 µM [inhibitor, partial curve, poor fit]. `O=C(CCCn1c(=S)[nH]c2ccccc2c1=O)NCCSCc1ccccc1` was tested, and the Potency was inconclusive: 44.7 µM [inhibitor, partial curve, poor fit]. In the case of `CCC(C)(C)C1CCc2[nH]nc(C(=O)NC3CCCCC3)c2C1` (configuration not stated), the Potency is reported as inconclusive: 39.8 µM [inhibitor, single point]. For `C[C@@H]1CC[C@H](O)/C=C/C(=O)O[C@H](C)CC[C@H](O)/C=C/C(=O)O1`, the Potency was inconclusive: 56.2 µM [inhibitor, single point]. `CC(=O)Nc1ccc(C=NNc2ccc([N+](=O)[O-])cc2S(=O)(=O)Nc2ccccc2C(=O)O)cc1` was tested, and the Potency was inconclusive: 20 µM [inhibitor, partial curve, poor fit]. `O=C(NN1C(=O)/C(=C/C=C/c2ccccc2)SC1=S)c1ccncc1` was tested, and the Potency was inconclusive: 14.1 µM [inhibitor, partial curve]. For `COc1ccc(N2CCN(S(=O)(=O)c3c(C(=O)N4CCOCC4)c(C)n(C)c3C)CC2)cc1`, the Potency was “inactive”. With `COc1cc(CN2c3ccc(Br)cc3C(=O)CS2(=O)=O)cc(OC)c1` the Potency was “inactive”. With `COc1ccccc1CNC(=O)c1ccc(CN2CC(=O)N3CCCCC3C2=O)cc1` (configuration not stated) the Potency was “inactive”. For `NS(=O)(=O)c1ccc(-c2ccc(/C=C3\SC(=O)NC3=O)o2)cc1`, the Potency was inconclusive: 17.8 µM [inhibitor, partial curve, poor fit]. In the case of `O=C(CCC(=O)NNC(=O)COc1ccc(Br)cc1)NCc1ccccc1`, the Potency is reported as “inactive”. For `COc1ccc(NC(=O)c2ccccc2NS(=O)(=O)c2ccc(C)cc2)c([N+](=O)[O-])c1`, the Potency was “inactive”. With `O=C(C1COc2ccccc2O1)N1CCc2ccccc21` (configuration not stated) the Potency was active: 44.7 µM. With `CCOCCCNC(=O)c1c[nH]c2ccc(S(=O)(=O)Nc3cccc(Cl)c3C)cc2c1=O` the Potency was inconclusive: 56.2 µM [inhibitor, partial curve, poor fit]. For `Cc1ccc(S(=O)(=O)/C(=C/Cl)NC(=O)c2ccccc2)cc1`, the Potency was inconclusive: 100 µM [inhibitor, single point]. For `O=C(O)CCCn1cc(NC(=O)c2cc(F)c(F)cc2Cl)cn1`, the Potency was inconclusive: 39.8 µM [inhibitor, single point]. In the case of `COC(=O)C1=C(C)NC(=O)/C1=C\c1ccco1`, the Potency is reported as inconclusive: 31.6 µM [inhibitor, single point]. With `N#Cc1c(-c2ccco2)nc(SCC(=O)Nc2cccc(Cl)c2)[nH]c1=O` the Potency was inconclusive: 12.6 µM [inhibitor, full curve, poor fit]. For `O=C(O)c1cccc(Nc2c3ccccc3nc3ccccc23)c1`, the Potency was “inactive”. `O=C(O)c1cc(N/N=C/c2ccc(N3CCOCC3)cc2)ccc1Cl` was tested, and the Potency was inconclusive: 50.1 µM [inhibitor, single point]. In the case of `CC1=N/C(=C/c2ccco2)C(=O)O1`, the Potency is reported as inconclusive: 12.6 µM [inhibitor, full curve, poor fit]. In the case of `CN(C)c1ccc(/C=N\Nc2ccc([N+](=O)[O-])cc2[N+](=O)[O-])cc1Cl`, the Potency is reported as “inactive”. `CC(C)C[C@H](NC(=O)c1nc[nH]c1C(=O)N1CCNCC1)C(=O)OCc1ccccc1` was tested, and the Potency was inconclusive: 10 µM [inhibitor, full curve, poor fit]. For `CCC(CC)C(=O)Nc1nnc2n1CCS2`, the Potency was “inactive”. In the case of `CCCCCCC[n+]1ccc(/C=C/c2c(C)[nH]c3ccccc23)c2ccccc21`, the Potency is reported as active: 79.4 µM. For `CCOC(=O)CC(NC(=O)c1cc2c(=O)n3cccc(C)c3nc2s1)c1ccc(OCC(C)C)c(OC)c1` (configuration not stated), the Potency was inconclusive: 89.1 µM [inhibitor, partial curve]. `Cc1ccc(S(=O)(=O)CCC(=O)c2ccc(O)cc2O)cc1` was tested, and the Potency was inconclusive: 10 µM [inhibitor, full curve, poor fit]. `CCN(CC)S(=O)(=O)c1ccc(OC)c(NC(=S)Nc2ccc(C)c(C)c2)c1` was tested, and the Potency was inconclusive: 56.2 µM [inhibitor, partial curve, poor fit].
Potency means the concentration at half of the fitted maximal effect.
